Assay results reported in the supplement of paper PMC10849652.
The list shows a part of the results.

Protein sequences, listed by entry. Tags and fused reporters are not part of them. Lines headed by an entry give the natural chain unless they say otherwise; changes in a name come on top.
UniProt P17931, whole entry, looked up: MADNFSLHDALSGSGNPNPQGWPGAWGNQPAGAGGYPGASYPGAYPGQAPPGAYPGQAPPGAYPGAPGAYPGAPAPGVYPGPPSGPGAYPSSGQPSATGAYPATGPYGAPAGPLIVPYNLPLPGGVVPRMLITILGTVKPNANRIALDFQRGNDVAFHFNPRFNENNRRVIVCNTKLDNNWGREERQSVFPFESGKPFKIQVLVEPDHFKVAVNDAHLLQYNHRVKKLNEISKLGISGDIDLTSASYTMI
UniProt P30533, whole entry, looked up: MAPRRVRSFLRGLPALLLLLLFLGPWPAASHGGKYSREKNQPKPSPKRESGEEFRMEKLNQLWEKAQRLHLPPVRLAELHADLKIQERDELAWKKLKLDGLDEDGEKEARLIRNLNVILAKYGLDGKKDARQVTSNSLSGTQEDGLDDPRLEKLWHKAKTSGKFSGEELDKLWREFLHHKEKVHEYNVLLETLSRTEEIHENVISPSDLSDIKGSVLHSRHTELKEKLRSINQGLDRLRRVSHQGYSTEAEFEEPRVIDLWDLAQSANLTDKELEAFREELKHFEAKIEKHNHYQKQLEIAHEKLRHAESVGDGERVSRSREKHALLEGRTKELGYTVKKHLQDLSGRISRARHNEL
UniProt Q7L1W4: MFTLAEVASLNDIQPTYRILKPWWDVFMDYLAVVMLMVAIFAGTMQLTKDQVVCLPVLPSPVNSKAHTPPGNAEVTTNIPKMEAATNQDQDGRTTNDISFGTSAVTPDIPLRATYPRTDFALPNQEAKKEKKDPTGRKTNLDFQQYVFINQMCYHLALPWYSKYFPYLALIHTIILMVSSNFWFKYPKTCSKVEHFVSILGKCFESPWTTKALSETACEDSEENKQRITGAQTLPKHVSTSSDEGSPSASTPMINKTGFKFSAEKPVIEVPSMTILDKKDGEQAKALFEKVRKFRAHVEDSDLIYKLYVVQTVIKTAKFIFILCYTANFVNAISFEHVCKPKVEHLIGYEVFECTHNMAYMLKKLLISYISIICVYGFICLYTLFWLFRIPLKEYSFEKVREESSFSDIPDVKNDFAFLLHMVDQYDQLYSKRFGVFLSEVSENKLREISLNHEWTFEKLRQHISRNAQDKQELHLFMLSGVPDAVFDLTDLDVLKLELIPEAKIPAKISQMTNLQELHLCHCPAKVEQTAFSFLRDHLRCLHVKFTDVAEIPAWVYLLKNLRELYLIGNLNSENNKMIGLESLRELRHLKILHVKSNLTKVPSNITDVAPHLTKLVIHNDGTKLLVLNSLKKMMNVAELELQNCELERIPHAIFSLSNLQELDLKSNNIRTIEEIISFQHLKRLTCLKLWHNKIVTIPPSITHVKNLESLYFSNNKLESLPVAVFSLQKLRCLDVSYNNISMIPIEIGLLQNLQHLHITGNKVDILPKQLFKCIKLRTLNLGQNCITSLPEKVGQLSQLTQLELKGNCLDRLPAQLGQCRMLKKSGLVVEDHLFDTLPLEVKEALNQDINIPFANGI
UniProt P48357: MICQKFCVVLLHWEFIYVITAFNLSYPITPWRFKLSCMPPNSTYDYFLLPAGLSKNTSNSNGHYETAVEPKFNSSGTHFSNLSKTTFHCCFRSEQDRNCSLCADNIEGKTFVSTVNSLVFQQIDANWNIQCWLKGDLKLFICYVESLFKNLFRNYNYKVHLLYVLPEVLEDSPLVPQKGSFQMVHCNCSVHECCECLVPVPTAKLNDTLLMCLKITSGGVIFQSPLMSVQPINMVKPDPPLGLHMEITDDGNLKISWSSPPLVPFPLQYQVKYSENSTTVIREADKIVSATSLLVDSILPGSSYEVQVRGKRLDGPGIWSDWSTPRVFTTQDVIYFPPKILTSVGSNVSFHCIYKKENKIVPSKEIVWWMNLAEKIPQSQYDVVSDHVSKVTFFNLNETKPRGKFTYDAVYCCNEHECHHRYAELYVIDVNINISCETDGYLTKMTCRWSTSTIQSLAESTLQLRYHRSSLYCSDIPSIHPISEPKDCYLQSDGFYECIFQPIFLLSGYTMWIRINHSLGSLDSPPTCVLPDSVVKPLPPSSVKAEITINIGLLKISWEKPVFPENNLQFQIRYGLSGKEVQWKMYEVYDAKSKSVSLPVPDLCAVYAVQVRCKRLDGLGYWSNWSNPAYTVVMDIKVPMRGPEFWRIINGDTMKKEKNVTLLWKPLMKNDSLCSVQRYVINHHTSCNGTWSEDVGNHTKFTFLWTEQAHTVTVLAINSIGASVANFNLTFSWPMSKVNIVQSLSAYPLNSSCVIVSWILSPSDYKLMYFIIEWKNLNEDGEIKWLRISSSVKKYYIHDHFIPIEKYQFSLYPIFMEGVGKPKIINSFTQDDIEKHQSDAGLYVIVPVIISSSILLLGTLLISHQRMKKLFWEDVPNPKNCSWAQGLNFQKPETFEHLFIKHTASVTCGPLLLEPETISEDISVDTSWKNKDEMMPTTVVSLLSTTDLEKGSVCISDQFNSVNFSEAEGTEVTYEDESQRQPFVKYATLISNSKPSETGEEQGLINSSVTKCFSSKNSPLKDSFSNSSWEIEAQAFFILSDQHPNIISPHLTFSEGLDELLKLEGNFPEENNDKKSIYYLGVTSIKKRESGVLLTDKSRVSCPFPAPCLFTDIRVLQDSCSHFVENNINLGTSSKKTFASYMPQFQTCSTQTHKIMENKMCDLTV
UniProt P49257: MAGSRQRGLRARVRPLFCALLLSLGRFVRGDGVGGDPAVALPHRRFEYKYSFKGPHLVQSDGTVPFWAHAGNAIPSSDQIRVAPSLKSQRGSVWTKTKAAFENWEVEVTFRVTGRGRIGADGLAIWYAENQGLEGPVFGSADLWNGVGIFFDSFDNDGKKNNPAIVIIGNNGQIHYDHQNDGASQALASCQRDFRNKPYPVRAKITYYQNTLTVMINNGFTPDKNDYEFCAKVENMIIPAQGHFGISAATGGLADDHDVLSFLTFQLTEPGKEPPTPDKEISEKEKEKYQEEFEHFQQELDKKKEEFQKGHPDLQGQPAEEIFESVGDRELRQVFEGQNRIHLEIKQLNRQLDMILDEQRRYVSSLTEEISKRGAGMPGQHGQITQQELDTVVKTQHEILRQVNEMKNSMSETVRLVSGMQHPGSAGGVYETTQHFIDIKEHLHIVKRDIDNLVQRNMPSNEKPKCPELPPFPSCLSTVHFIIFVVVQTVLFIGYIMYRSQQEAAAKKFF
UniProt Q9NUP9: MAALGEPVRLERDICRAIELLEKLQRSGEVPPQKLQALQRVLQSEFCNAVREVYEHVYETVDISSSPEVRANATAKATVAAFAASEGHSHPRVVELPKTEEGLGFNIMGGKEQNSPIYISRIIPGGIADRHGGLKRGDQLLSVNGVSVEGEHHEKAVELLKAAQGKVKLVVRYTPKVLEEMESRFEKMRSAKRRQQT
UniProt Q92539: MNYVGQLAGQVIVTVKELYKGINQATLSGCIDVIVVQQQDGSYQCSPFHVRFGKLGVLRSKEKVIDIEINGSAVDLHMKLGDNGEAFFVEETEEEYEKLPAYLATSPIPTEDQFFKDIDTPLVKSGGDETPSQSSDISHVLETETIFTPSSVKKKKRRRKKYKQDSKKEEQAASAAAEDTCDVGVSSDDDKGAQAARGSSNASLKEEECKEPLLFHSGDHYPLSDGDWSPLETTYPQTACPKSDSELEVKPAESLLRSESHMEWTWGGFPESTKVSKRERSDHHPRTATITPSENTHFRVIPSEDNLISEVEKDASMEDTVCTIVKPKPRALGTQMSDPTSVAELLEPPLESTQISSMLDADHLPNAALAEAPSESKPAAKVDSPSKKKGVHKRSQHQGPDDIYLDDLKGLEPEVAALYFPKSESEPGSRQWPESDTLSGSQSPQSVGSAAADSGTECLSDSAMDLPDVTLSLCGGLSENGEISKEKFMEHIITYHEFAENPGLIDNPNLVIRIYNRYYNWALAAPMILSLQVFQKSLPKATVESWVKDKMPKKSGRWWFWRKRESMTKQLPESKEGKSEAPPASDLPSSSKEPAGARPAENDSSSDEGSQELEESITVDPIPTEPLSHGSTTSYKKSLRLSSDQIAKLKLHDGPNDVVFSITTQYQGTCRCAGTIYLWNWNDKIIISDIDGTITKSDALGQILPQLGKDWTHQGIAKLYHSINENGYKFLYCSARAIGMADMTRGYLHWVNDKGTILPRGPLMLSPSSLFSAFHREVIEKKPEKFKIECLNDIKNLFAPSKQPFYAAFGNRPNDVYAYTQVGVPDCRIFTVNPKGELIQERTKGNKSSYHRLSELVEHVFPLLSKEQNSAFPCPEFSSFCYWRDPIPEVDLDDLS
UniProt Q9H6V9: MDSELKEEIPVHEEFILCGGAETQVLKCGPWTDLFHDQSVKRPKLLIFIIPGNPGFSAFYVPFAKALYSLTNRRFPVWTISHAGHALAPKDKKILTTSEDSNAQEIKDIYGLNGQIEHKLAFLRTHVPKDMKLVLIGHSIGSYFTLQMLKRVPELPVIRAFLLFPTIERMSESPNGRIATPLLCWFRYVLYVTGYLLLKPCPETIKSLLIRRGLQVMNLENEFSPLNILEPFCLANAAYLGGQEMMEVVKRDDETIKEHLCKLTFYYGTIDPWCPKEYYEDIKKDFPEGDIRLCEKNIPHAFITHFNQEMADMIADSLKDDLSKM
UniProt Q14847: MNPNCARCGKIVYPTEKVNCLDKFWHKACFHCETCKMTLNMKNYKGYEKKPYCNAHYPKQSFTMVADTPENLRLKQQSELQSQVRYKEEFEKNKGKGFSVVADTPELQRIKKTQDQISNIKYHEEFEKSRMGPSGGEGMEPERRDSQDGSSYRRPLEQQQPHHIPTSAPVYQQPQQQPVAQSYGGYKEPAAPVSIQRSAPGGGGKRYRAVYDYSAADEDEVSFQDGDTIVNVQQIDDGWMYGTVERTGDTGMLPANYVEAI
UniProt Q68DH5: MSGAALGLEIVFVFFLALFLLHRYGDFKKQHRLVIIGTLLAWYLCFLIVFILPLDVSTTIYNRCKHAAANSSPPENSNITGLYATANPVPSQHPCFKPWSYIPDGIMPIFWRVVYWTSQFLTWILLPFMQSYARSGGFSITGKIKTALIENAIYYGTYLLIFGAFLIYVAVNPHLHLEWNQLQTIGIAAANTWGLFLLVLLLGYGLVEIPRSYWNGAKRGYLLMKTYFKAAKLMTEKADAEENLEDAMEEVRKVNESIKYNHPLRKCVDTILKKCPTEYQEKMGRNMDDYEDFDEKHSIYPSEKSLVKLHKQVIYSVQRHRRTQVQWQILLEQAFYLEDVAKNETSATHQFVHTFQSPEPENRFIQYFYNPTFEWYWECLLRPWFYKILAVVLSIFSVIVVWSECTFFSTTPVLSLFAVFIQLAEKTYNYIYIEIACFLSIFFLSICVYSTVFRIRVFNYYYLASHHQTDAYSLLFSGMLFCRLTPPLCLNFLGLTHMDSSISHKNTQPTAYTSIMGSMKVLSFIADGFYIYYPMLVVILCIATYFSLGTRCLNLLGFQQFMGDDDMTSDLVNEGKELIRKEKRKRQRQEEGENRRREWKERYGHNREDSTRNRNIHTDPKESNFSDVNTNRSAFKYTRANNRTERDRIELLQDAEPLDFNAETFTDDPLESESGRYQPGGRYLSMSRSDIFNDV
UniProt Q8NG48: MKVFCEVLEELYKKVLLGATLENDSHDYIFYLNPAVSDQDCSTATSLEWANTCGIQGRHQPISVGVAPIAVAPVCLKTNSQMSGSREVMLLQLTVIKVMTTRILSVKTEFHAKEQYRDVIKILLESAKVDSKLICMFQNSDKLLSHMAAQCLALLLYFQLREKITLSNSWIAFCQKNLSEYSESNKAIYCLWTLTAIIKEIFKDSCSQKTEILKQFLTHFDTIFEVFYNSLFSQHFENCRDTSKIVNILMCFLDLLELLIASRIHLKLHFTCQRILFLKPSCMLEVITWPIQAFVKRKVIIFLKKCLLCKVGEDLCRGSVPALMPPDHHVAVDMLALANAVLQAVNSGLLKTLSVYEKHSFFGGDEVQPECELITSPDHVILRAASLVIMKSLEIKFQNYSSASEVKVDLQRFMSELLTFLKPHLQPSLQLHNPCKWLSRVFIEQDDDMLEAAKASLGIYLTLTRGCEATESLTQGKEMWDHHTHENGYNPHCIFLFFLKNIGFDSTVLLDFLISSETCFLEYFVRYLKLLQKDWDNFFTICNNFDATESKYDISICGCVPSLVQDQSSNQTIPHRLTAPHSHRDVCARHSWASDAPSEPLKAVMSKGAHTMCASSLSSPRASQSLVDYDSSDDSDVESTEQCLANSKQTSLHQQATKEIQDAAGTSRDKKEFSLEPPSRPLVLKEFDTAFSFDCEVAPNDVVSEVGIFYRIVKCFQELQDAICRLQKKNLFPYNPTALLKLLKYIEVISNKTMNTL

Experiments:
Assay in all cases: log2 fold change, soluble protein after heating vs DMSO (PISA); higher = thermal stabilisation; K562 lysate, 10 uM; active = over 0.2 and 3.5 SD of the protein, either way, in both replicates (recomputed)
[1] = compound: CCCS(=O)(=O)Nc1ccc(F)c(C(=O)c2c[nH]c3ncc(-c4ccc(Cl)cc4)cc23)c1F [vemurafenib]
In short: (§1)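 Values give the log-two fold change in thermal stability against solvent controls, from duplicates. Crude K562 extract at 1 mg/mL protein, made by dounce homogenisation in PBS pH 7.4 with 1 mM MgCl2, was treated with 10 μM compound for 30 min. After 3 min heating across 48°C-58°C, aliquots were pooled, adjusted to 0.5% NP-40 at 4°C and centrifuged at 21,000xg for 90 min. The supernatant was measured by TMTpro 16plex LC-MS/MS with channel sums equalised.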

[2] = compound: CCCS(=O)(=O)Nc1ccc(F)c(C(=O)c2c[nH]c3ncc(Cl)cc23)c1F
In short: as §1

[3] = compound: CCN(CCCOc1ccc2c(Nc3cc(CC(=O)Nc4cccc(F)c4)[nH]n3)ncnc2c1)CCOP(=O)(O)O [barasertib]
In short: as §1

[4] = compound: CC[C@@H]1C(=O)N(C)c2cnc(Nc3ccc(C(=O)NC4CCN(C)CC4)cc3OC)nc2N1C1CCCC1
In short: as §1

[5] = compound: CC[C@@H]1C(=O)N(C)c2cnc(Nc3ccc(C(=O)N[C@H]4CC[C@H](N5CCN(CC6CC6)CC5)CC4)cc3OC)nc2N1C(C)C [volasertib]
In short: as §1

[6] = compound: CCn1c(C(=O)N(C2CC2)C2CC2)cc2c3c(ncn3C)c(Nc3cc(C)n(C)n3)nc21
In short: as §1

[7] = compound: CCn1cc(-c2ccnc3[nH]c(-c4cccc(CN(C)C)c4)cc23)c(-c2ccc(NC(=O)N(C)C)cc2)n1
In short: as §1

[8] = compound: CN1CCC(CNc2ccc3ncc(-c4cccc(OC(F)(F)F)c4)n3n2)CC1
In short: as §1

[9] = compound: CN1CCN(CCOc2cc(OC3CCOCC3)c3c(Nc4c(Cl)ccc5c4OCO5)ncnc3c2)CC1 [saracatinib]
In short: as §1

[10] = compound: CN1CCN(c2nc(C3=C(c4c[nH]c5ccccc45)C(=O)NC3=O)c3ccccc3n2)CC1 [sotrastaurin]
In short: as §1

[11] = compound: CN1CC[C@H](c2c(O)cc(O)c3c(=O)cc(-c4ccccc4Cl)oc23)[C@H](O)C1 [alvocidib]
In short: as §1

[12] = compound: CN1CCc2c(c3ccccc3n2Cc2ccc(C(=O)NO)cc2)C1 [Tubastatin A]
In short: as §1

[13] = compound: CNC(=O)C1=CC=CC=C1NC2=NC(=NC=C2Cl)NC3=C(C=C(C=C3)N4CCOCC4)OC
In short: as §1

[14] = compound: CNC(=O)c1ccc(Nc2ncc(C(F)(F)F)c(NCc3nccnc3N(C)S(C)(=O)=O)n2)cc1 [defactinib]
In short: as §1

[15] = compound: CNc1nc(-c2ccc3c(N)n[nH]c3c2)cc(N2C[C@@H](C(=O)NC3CCCCC3)CC[C@H]2C)n1
In short: as §1

[16] = compound: COC(=O)N[C@@H](C)CNc1nccc(-c2cn(C(C)C)nc2-c2cc(Cl)cc(NS(C)(=O)=O)c2F)n1 [encorafenib]
In short: as §1

[17] = compound: COC(=O)[C@H](CCSC)NC(=O)C1=C(C=C(C=C1)NC[C@H](CS)N)C2=CC=CC=C2
In short: as §1

[18] = compound: COc1cc(Nc2ncc3c(n2)-c2ccc(Cl)cc2C(c2c(F)cccc2OC)=NC3)ccc1C(=O)O [alisertib]
In short: as §1

[19] = compound: COc1cc2nc(-c3cc(F)ccc3O)nc(N[C@@H]3CNC[C@H]3C(C)(C)O)c2cc1OC
In short: as §1

[20] = compound: COc1cc2ncnc(Nc3ccc(F)c(Cl)c3)c2cc1OCCCN1CCOCC1 [gefitinib]
In short: as §1

Measured: log2 fold change

LGALS3 (UniProt P17931)
inactive: [1] -0.165 | [2] 0.044 | [3] 0.118 | [4] 0.117 | [5] 0.135 | [6] 0.071 | [7] 0.179 | [8] -0.101 | [9] 0.496 | [10] -0.035 | [11] 0.044 | [12] 0.128 | [13] 0.005 | [14] 0.088 | [15] -0.373 | [16] 0.07 | [17] 0.247 | [18] 0.034 | [19] 0.003 | [20] 0.031

LRPAP1 (UniProt P30533)
inactive: [1] 0.053 | [2] -0.005 | [3] -0.051 | [4] -0.038 | [5] -0.006 | [6] -0.011 | [7] 0.058 | [8] -0.022 | [9] 0.026 | [10] 0.031 | [11] 0.022 | [12] 0.011 | [13] -0.014 | [14] -0.004 | [15] -0.054 | [16] 0.017 | [17] -0.077 | [18] -0.019 | [19] 0.022 | [20] 0.011

LRRC8B (UniProt Q6P9F7)
inactive: [1] 0.011 | [2] 0.029 | [3] -0.155 | [4] -0.191 | [5] -0.17 | [6] 0.004 | [7] -0.037 | [8] 0.193 | [9] 0.229 | [10] -0.017 | [11] -0.048 | [12] -0.043 | [13] 0.068 | [14] 0.001 | [15] 0.089 | [16] 0.104 | [17] 0.043 | [18] 0.05 | [19] 0.209 | [20] 0.017

LRRC8D (UniProt Q7L1W4)
inactive: [1] 0.078 | [2] 0.006 | [3] 0.059 | [4] 0 | [5] -0.039 | [6] -0.03 | [7] -0.077 | [8] -0.022 | [9] 0.003 | [10] -0.005 | [11] -0.023 | [12] 0.036 | [13] -0.031 | [14] -0.038 | [15] 0.008 | [16] 0.023 | [17] 0.106 | [18] 0.004 | [19] 0.051 | [20] 0.003

LRRC8C (UniProt Q8TDW0)
inactive: [1] 0.146 | [2] -0.073 | [3] -0.013 | [4] -0.133 | [5] -0.088 | [6] -0.06 | [7] 0.012 | [8] 0.055 | [9] 0.103 | [10] 0.012 | [11] 0.045 | [12] 0.013 | [13] -0.011 | [14] -0.019 | [15] -0.048 | [16] 0.041 | [17] 0.003 | [18] 0.121 | [19] 0.029 | [20] -0.135

LEPR (UniProt P48357)
inactive: [1] 0.027 | [2] -0.039 | [3] 0.015 | [4] 0.009 | [5] 0.014 | [6] 0.03 | [7] 0.004 | [8] 0.044 | [9] 0.058 | [10] 0.025 | [11] -0.02 | [12] 0.061 | [13] -0.04 | [14] 0.004 | [15] -0.076 | [16] 0.058 | [17] -0.05 | [18] -0.044 | [19] -0.159 | [20] 0.007

LMAN1 (UniProt P49257)
inactive: [1] 0.009 | [2] -0.011 | [3] -0.011 | [4] 0.055 | [5] 0.008 | [6] 0.018 | [7] 0.107 | [8] -0.044 | [9] -0.01 | [10] 0.055 | [11] 0.012 | [12] 0.045 | [13] -0.006 | [14] 0.024 | [15] 0.046 | [16] 0.057 | [17] -0.045 | [18] -0.036 | [19] 0.017 | [20] 0.024

LIN7C (UniProt Q9NUP9)
inactive: [1] -0.027 | [2] -0.004 | [3] 0.003 | [4] 0.005 | [5] 0.009 | [6] 0.083 | [7] 0 | [8] 0.004 | [9] 0.005 | [10] 0.041 | [11] 0.039 | [12] 0.004 | [13] 0.1 | [14] -0.014 | [15] -0.027 | [16] -0.018 | [17] -0.043 | [18] 0.002 | [19] 0.003 | [20] 0.009

LPIN2 (UniProt Q92539)
inactive: [1] -0.061 | [2] 0.027 | [3] 0 | [4] 0.045 | [5] 0.008 | [6] 0.005 | [7] -0.002 | [8] -0.073 | [9] 0.057 | [10] 0.057 | [11] 0.005 | [12] -0.043 | [13] 0.056 | [14] 0.045 | [15] 0.006 | [16] 0.038 | [17] 0.021 | [18] 0.001 | [19] 0.017 | [20] 0.047

LDAH isoform 2 (UniProt Q9H6V9)
inactive: [1] 0.077 | [2] 0.125 | [3] 0.018 | [4] 0.003 | [5] -0.036 | [6] -0.004 | [7] -0.013 | [8] -0.018 | [9] 0.016 | [10] -0.01 | [11] 0.003 | [12] -0.124 | [13] -0.012 | [14] 0.012 | [15] -0.027 | [16] -0.03 | [17] 0.048 | [18] 0 | [19] -0.036 | [20] 0.004

LIN54 (UniProt Q6MZP7)
inactive: [1] 0.149 | [2] -0.001 | [3] 0.053 | [4] 0.019 | [5] -0.037 | [6] 0.034 | [7] -0.103 | [8] 0.104 | [9] -0.034 | [10] 0.01 | [11] -0.029 | [12] -0.014 | [13] 0 | [14] -0.058 | [15] 0.025 | [16] -0.002 | [17] 0.052 | [18] -0.029 | [19] 0.108 | [20] -0.102

LASP1 (UniProt Q14847)
inactive: [1] 0.025 | [2] -0.02 | [3] -0.043 | [4] 0.032 | [5] 0.012 | [6] 0.02 | [7] -0.038 | [8] 0.022 | [9] -0.006 | [10] -0.01 | [11] 0.013 | [12] 0.062 | [13] -0.011 | [14] -0.022 | [15] 0.034 | [16] -0.056 | [17] -0.024 | [18] -0.007 | [19] -0.015 | [20] -0.004

LMBRD2 (UniProt Q68DH5)
inactive: [1] -0.024 | [2] 0.015 | [3] 0.014 | [4] 0.05 | [5] -0.012 | [6] -0.049 | [7] 0.013 | [8] -0.081 | [9] 0.033 | [10] 0.054 | [11] 0.059 | [12] 0.054 | [13] -0.002 | [14] 0.01 | [15] -0.011 | [16] 0.051 | [17] 0.027 | [18] 0.123 | [19] 0.003 | [20] 0.153

Looked up one by one from the entries so far, 2 records:
LMAN1 (UniProt P49257)
inactive: [1] 0.009 | [2] -0.011 | [3] -0.011 | [4] 0.055 | [5] 0.008 | [6] 0.018 | [7] 0.107 | [8] -0.044 | [9] -0.01 | [10] 0.055 | [11] 0.012 | [12] 0.045 | [13] -0.006 | [14] 0.024 | [15] 0.046 | [16] 0.057 | [17] -0.045 | [18] -0.036 | [19] 0.017 | [20] 0.024

LGALS3 (UniProt P17931)
inactive: [1] -0.165 | [2] 0.044 | [3] 0.118 | [4] 0.117 | [5] 0.135 | [6] 0.071 | [7] 0.179 | [8] -0.101 | [9] 0.496 | [10] -0.035 | [11] 0.044 | [12] 0.128 | [13] 0.005 | [14] 0.088 | [15] -0.373 | [16] 0.07 | [17] 0.247 | [18] 0.034 | [19] 0.003 | [20] 0.031

More results follow.

LMNB1 (UniProt P20700)
inactive: [1] -0.009 | [2] 0.031 | [3] 0.02 | [4] 0.012 | [5] 0 | [6] 0.006 | [7] -0.027 | [8] 0.006 | [9] -0.011 | [10] -0.031 | [11] -0.035 | [12] 0.002 | [13] -0.013 | [14] -0.009 | [15] -0.04 | [16] 0.029 | [17] -0.044 | [18] -0.011 | [19] 0.011 | [20] 0.001

LTA4H (UniProt P09960)
inactive: [1] -0.022 | [2] -0.015 | [3] -0.039 | [4] 0.005 | [5] 0.034 | [6] 0.015 | [7] -0.028 | [8] 0.05 | [9] -0.003 | [10] 0.017 | [11] 0.026 | [12] 0.01 | [13] 0.005 | [14] -0.032 | [15] 0 | [16] -0.008 | [17] -0.041 | [18] -0.001 | [19] 0.008 | [20] -0.005

LINS1 (UniProt Q8NG48)
inactive: [1] -0.036 | [2] -0.095 | [3] -0.182 | [4] 0.087 | [5] -0.067 | [6] -0.052 | [7] 0.194 | [8] 0.052 | [9] -0.061 | [10] 0.085 | [11] 0.074 | [12] -0.08 | [13] 0.044 | [14] 0.071 | [15] -0.109 | [16] 0.095 | [17] -0.001 | [18] -0.174 | [19] 0.023 | [20] 0.025
